Test results taken from patent publication US20060246074A1.
These are yes or no findings as the source states them, for the method shown. Some entries that bind do so weakly or less than the wild type.

T1: cathepsin G (Calbiochem) (UniProt P08311)
T1 sequence (looked up): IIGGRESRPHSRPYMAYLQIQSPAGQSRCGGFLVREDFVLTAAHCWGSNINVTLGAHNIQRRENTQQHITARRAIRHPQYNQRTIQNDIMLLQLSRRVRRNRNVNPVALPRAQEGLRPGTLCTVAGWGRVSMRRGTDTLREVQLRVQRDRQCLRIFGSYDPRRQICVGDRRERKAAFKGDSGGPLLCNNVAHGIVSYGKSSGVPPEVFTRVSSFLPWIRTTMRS

B1: active ACT polypeptides (alpha 1-antichymotrypsin) from human wound exudates (protein, UniProt P01011 24-423, looked up)
chain: HPNSPLDEENLTQENQDRGTHVDLGLASANVDFAFSLYKQLVLKAPDKNVIFSPLSISTALAFLSLGAHNTTLTEILKGLKFNLTETSEAEIHQSFQHLLRTLNQSSDELQLSMGNAMFVKEQLSLLDRFTEDAKRLYGSEAFATDFQDSAAAKKLINDYVKNGTRGKITDLIKDLDSQTMMVLVNYIFFKAKWEMPFDPQDTHQSRFYLSKKKWVMVPMMSLHHLTIPYFRDEELSCTVVELKYTGNASALFILPDQDKMEEVEAMLLPETLKRWRDSLEFREIGELYLPKFSISRDYNLNDILLQLGIEEAFTSKADLSGITGARNLAVSQVVHKAVLDVFEEGTEASAATAVKITLLSALVETRTIVRFNRPFLMIIVPTDTQNIFFMSKVTNPKQA
B2: commercially available ACT (Calbiochem) (protein)
chain: NSPLDEENLTQENQDRGTHVDLGLASANVDFAFSLYKQLVLKAPDKNVIFSPLSISTALAFLSLGAHNTTLTEILKGLKFNLTETSEAEIHQSFQHLLRTLNQSSDELQLSMGNAMFVKEQLSLLDRFTEDAKRLYGSEAFATDFQDSAAAKKLINDYVKNGTRGKITDLIKDLDSQTMMVLVNYIFFKAKWEMPFDPQDTHQSRFYLSKKKWVMVPMMSLHHLTIPYFRDEELSCTVVELKYTGNASALFILPDQDKMEEVEAMLLPETLKRWRDSLEFREIGELYLPKFSISRDYNLNDILLQLGIEEAFTSKADLSGITGARNLAVSQVVHKAVLDVFEEGTEASAATAVKITLLSALVETRTIVRFNRPFLMIIVPTDTQNIFFMSKVTNPKQA

Experiments:
cathepsin G (Calbiochem) [1] = biological target: T1, cathepsin G (Calbiochem); test: plate assay: cathepsin G coated on microtiter plate, bound ACT detected with rabbit anti-human ACT antibody and AP-coupled secondary antibody, absorbance 490 nm
cathepsin G (Calbiochem) [2] = biological target: T1, cathepsin G (Calbiochem); test: plate assay: dilution series of ACT on cathepsin G-coated plate, detected with anti-ACT antibody, absorbance 490 nm; no absorbance values printed

Row | Binder | binding (cathepsin G (Calbiochem) [1]) | binding (cathepsin G (Calbiochem) [2])
1 | B1 | binds | –
2 | B2 | – | binds
